Measured values published in article PMC5297980 (Clinical Pharmacology in Drug Development, 2016).

Test: Phase 1 atorvastatin-isavuconazole interaction study, plasma PK

AUC(0-t) (human, plasma, oral, 20 mg): 40.5 ng·h/mL
Tmax (human, plasma, oral, 20 mg): 48 min
AUC(0-inf) (human, plasma, po, 20 mg): 44.4 ng·h/mL
Mean AUClast higher following coadministration with isavuconazole (vs atorvastatin alone): 38%
Mean Cmax higher following coadministration with isavuconazole (vs atorvastatin alone): 3%
SMILES: CC(C)c1c(C(=O)Nc2ccccc2)c(-c2ccccc2)c(-c2ccc(F)cc2)n1CC[C@@H](O)C[C@@H](O)CC(=O)O [Atorvastatin, atorvastatin]
